Measurements as given in publication PMC12227070.

Chains of the proteins cited; added tags and fusions are not shown. Lines headed by an entry give the natural chain unless they say otherwise; changes in a name come on top.
UniProt P33176: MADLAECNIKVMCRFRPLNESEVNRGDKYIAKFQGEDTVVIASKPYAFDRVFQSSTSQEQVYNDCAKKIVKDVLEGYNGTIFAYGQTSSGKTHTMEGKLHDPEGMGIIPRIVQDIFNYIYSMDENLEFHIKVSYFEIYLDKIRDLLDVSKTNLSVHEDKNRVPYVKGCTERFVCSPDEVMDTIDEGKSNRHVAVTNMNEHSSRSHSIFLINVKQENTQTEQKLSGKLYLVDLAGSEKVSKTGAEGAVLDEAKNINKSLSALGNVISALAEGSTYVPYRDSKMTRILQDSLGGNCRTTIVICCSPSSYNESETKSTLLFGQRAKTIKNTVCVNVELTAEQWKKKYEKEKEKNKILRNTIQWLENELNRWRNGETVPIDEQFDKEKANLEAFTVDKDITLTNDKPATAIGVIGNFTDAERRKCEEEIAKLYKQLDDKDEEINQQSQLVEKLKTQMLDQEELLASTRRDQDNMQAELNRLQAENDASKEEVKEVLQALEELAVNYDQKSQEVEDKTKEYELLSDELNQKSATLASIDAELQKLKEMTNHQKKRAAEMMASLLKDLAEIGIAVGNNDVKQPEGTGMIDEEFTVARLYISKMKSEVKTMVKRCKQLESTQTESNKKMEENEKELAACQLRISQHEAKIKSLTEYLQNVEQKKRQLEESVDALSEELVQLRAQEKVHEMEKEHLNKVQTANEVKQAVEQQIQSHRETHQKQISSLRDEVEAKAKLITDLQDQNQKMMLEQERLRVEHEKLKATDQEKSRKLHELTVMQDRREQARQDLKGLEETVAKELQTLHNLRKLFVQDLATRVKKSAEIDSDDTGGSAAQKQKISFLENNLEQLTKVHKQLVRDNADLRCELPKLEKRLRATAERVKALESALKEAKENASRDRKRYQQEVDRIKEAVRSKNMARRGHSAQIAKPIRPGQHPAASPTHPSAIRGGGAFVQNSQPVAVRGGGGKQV
UniProt Q7L804: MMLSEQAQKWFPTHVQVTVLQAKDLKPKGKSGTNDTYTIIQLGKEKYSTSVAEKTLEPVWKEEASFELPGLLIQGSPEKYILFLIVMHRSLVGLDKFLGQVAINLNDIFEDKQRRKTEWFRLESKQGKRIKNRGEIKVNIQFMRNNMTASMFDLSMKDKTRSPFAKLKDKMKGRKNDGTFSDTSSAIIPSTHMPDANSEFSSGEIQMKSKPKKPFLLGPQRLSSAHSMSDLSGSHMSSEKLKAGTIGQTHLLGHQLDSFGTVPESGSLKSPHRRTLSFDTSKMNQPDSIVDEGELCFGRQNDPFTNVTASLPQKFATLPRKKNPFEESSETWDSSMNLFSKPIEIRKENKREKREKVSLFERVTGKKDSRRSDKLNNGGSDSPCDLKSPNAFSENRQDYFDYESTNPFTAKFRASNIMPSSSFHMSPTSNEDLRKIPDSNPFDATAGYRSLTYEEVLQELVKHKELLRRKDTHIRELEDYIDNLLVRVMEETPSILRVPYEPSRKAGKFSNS
UniProt P05556: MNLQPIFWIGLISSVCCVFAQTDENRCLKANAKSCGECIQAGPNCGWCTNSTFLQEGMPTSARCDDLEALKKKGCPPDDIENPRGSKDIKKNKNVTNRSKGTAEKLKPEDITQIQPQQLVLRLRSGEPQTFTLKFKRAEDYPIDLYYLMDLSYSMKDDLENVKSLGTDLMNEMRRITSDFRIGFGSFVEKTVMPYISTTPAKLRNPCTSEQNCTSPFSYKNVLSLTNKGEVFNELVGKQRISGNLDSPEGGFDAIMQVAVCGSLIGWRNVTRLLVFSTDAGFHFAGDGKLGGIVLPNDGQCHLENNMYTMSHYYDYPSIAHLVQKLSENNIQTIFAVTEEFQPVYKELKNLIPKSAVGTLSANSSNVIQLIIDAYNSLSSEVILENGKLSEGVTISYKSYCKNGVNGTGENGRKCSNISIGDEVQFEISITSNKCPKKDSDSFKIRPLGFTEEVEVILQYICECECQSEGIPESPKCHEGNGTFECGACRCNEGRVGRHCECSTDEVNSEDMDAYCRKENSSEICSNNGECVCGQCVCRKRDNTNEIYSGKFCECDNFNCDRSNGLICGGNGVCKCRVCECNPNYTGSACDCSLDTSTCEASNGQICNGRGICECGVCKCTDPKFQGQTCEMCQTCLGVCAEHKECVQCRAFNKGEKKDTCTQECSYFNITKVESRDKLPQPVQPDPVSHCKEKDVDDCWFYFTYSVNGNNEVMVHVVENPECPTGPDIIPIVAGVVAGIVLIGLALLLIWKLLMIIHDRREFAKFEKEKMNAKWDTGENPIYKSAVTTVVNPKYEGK

What was measured:
[1] = biological target: T1, mycBirA*-Rab25 wt (UniProt P57735); assay: proximity labelling; Rab25-BioID in living A2780 cells with mass spectrometry (label-free quantification); reanalysis of the previously published dataset PXD033693 (ref. 22); hits: at least 1.8-fold increase over BirA alone in at least three of four replicates
T1 sequence: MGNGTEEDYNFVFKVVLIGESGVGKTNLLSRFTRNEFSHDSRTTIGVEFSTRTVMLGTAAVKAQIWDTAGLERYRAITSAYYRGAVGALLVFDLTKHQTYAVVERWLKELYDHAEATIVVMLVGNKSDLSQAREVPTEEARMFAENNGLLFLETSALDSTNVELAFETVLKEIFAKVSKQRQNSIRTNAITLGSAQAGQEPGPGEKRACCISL

[2] = biological target: T2, mycBirA*-Rab25 DN (T26N) (UniProt P57735); assay: proximity labelling; BioID in A2780 stably expressing mycBirA* fused Rab25 wt or mutants; 1 μM biotin, 16 hours; lysates equalized to total protein, biotinylated proteins pulled down with streptavidin beads, immunoblot; Ctrl, no BirA
T2 sequence: T1 sequence with T26N

[3] = biological target: T1, mycBirA*-Rab25 wt; assay: as above

binding [1] | binding [2] | binding [3] | Substance
binds | no binding | binds | FMNL1 (formin-like protein 1) (from UniProt O95466-2)
binds |  |  | Kif5b (from UniProt P33176 1-963)
binds |  |  | RAB11FIP2 (from UniProt Q7L804 1-512)
binds |  |  | endothelial growth factor receptor (EGFR) (from UniProt P00533 25-1210)
binds | no binding | binds | integrin β1 (from UniProt P05556 21-798) (receptor)

Residue numbers refer to the chain shown, from its start. Results are given in words; binding and its absence hold for the method and conditions named. Binding seen in cells or lysates may run through a third protein. These calls come from enrichment with a bait or labelling near it, and not all partners need be listed. For part of these data: No binding means not detected with the bait. Sequences can lack the tags named with a protein.
